Assay [1] deals with T1, Flag-tagged full-length CYLD (FL) (UniProt Q9NQC7).
T1 sequence: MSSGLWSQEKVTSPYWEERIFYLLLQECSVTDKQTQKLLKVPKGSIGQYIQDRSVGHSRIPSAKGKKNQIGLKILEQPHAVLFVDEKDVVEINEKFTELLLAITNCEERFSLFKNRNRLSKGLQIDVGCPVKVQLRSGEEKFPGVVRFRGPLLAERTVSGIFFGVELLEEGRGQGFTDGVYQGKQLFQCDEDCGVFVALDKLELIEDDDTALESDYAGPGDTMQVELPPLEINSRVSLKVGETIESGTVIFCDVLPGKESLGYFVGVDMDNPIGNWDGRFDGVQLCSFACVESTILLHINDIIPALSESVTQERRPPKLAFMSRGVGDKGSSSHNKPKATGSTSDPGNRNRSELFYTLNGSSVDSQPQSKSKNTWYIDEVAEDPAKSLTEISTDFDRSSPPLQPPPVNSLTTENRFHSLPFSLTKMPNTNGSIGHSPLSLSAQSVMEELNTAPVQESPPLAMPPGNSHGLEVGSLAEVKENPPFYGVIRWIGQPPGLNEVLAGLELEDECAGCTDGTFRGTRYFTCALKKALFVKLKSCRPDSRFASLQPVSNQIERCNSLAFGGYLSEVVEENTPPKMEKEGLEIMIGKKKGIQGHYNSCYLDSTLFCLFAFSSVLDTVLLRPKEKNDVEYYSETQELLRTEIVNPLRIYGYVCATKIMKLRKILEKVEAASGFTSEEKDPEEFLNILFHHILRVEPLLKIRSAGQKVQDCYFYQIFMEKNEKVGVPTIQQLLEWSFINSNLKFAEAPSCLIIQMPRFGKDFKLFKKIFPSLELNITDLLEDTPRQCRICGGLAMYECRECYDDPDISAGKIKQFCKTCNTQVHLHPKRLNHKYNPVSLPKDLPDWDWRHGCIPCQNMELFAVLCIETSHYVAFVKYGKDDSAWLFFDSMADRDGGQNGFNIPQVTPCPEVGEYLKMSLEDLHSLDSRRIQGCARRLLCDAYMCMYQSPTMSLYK
The experiment in a line: co-IP; 293T cells transfected with Flag-CYLD (full length or deletion mutants) and Myc-tagged partner; lysates immunoprecipitated with Flag antibody on Dynabeads protein A; Western blot. For orientation: A western blot detects proteins with antibodies after separation by electrophoresis.

Protein sequences, listed by entry. Tags and fused reporters are not part of them.
UniProt Q13546: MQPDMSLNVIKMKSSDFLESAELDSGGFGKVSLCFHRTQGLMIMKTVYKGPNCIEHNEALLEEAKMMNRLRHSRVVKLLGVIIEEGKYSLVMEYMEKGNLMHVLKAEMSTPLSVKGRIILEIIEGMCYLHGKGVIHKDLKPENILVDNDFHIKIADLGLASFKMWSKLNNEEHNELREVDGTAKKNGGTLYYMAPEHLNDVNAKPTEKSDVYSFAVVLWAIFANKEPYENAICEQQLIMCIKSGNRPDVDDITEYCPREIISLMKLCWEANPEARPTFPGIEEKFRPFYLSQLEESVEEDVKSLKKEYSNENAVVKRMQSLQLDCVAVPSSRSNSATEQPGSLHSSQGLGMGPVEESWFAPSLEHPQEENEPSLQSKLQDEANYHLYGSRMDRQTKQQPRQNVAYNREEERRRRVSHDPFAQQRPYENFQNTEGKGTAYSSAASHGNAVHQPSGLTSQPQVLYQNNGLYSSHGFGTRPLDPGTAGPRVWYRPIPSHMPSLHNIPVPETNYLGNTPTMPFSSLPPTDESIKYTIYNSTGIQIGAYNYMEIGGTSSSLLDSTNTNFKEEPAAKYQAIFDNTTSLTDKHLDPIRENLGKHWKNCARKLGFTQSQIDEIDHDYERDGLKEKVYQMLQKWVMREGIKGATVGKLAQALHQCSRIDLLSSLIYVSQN
UniProt P42773: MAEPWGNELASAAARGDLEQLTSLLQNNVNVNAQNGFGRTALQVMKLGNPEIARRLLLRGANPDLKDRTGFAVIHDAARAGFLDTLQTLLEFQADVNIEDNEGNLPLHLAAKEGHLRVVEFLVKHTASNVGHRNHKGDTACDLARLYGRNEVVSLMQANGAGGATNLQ

For assay [2], the target named is T2, cylindromatosis (CYLD) protein (human (endogenous in HONE1)) (UniProt Q9NQC7).
T2 sequence: T1 sequence
The experiment in a line: co-IP; endogenous proteins; HONE1 and HONE1-EBV cell lysates (IP lysis buffer, 1 mg protein) immunoprecipitated with CYLD antibody (2 ug, overnight, 4 C) on Dynabeads protein A; Western blot.

Assay [3] addresses T2, cylindromatosis (CYLD) protein (human (endogenous in HONE1)). The experiment in a line: proximity ligation; in situ PLA (DuoLink In Situ Red, mouse/rabbit) in fixed HONE1 cells with primary antibodies to CYLD and p18.

These are yes or no findings as the source states them, for the method shown. Binding seen in cells or lysates may run through a third protein. Some results given as binding are weak or reduced against the parent protein; the word gives no strength. For some assays here: Tags and fused reporters may be left off the sequences shown.

Regarding Myc-RIP1 (from UniProt Q13546 1-671), the binding result in assay [1] is on record as “binds”. Still for that read-out and setting: next, “Myc-tagged full-length p18 (FL) (from UniProt P42773 1-168)”: “binds”. Consider “RIP1 (Receptor Interaction protein 1) (from UniProt Q13546 1-671)”, for which, in assay [2], the binding result is reported as “binds”. For p18INK4C (from UniProt P42773 1-168), the binding result in assay [3] and in assay [2] was “binds” throughout.

The values are drawn from paper PMC7925679.
